The values below come from paper doi:10.1101/2025.04.15.648887.

The target in the test is YTHDF3 (rat (endogenous in H9c2)). Nature of the test: co-IP.

Results are given in words; binding and its absence hold for the method and conditions named. In cells and extracts the contact can be indirect. Binding can be weak; no strength is given.

B1: DDX5 (protein, UniProt Q6AYI1 1-615)
chain: MSSYSSDRDRGRDRGFGAPRFGGSRTGPLSGKKFGNPGEKLVKKKWNLDELPKFEKNFYQEHPDLARRTAQEVDTYRRSKEITVRGHNCPKPVLNFYEANFPANVMDVIARQNFTEPTAIQAQGWPVALSGLDMVGVAQTGSGKTLSYLLPAIVHINHQPFLERGDGPICLVLAPTRELAQQVQQVAAEYCRACRLKSTCIYGGAPKGPQIRDLERGVEICIATPGRLIDFLECGKTNLRRTTYLVLDEADRMLDMGFEPQIRKIVDQIRPDRQTLMWSATWPKEVRQLAEDFLKDYIHINIGALELSANHNILQIVDVCHDVEKDEKLIRLMEEIMSEKENKTIVFVETKRRCDELTRKMRRDGWPAMGIHGDKSQQERDWVLNEFKHGKAPILIATDVASRGLDVEDVKFVINYDYPNSSEDYIHRIGRTARSTKTGTAYTFFTPNNIKQVSDLISVLREANQAINPKLLQLVEDRGSGRSRGRGGMKDDRRDRYSAGKRGGFNTFRDRENYDRGYSSLLKRDFGAKTQNGVYSAANYTNGSFGSNFVSAGIQTSFRTGNPTGTYQNGYDSTQQYGSNVANMHNGMNQQAYAYPATAAAAPMIGYPMPTGYSQ
As for B1, the binding result is “binds”.
